In PubChem BioAssay AID328 (DTP/NCI, 2004):
The list does not hold the whole screen: its compounds were picked by chemical class. Other doses and runs of a compound may be missing. T/C is the treated group as % of the vehicle group. Some entries give survivors of the animals treated and no T/C: the source holds a T/C of zero for them, seemingly a mark for toxic or unscored doses. Some doses without a T/C left all or most animals alive at the check, yet need not have been tolerated: the source hardly ever lists a survival T/C far under the control, and the zero likely stands for such cases as well. Counts of survivors are from the toxicity check (mostly the fifth day) where no day follows; animals may have died later. Schedules are NCI's codes, taken here to give the interval after Q, in days (D) or hours (H), and the number of doses after X. Where survival is the endpoint, this PubChem deposit counts one and a half times the control or more as active, and values a quarter to a half above the control carry no call in these data; other NCI protocols may use other cut-offs. Some doses were run more than once; the results are listed from low to high. Some entries show no survivor count and are marked so; the dose need not have been tolerated. Some T/C values carry the count of animals alive at the toxicity check (mostly the fifth day); without a count or a note in brackets, all were alive then.

Test system: BDF1 mice, P388 leukemia ip, median survival T/C
Test: NCI In Vivo Anticancer Drug Screen. Data for tumor model P388 Leukemia (intraperitoneal) in B6D2F1 (BDF1) mice
Conditions: T/C endpoint: median survival time, higher T/C = longer survival
Summary of the method: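 Antitumour effect was judged in vivo: survival in drug-treated mice, normalised to that of vehicle-dosed controls, gives the reported T/C.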

[1] = dose: 12.5 mg/kg/injection, schedule: Q04DX003 (ip), vehicle: Klucel (hydroxypropylcellulose) (HPC)
[2] = dose: 25.0 mg/kg/injection, schedule: Q04DX003 (ip), vehicle: Klucel (hydroxypropylcellulose) (HPC)
[3] = dose: 50.0 mg/kg/injection, schedule: Q04DX003 (ip), vehicle: Klucel (hydroxypropylcellulose) (HPC)
[4] = dose: 75.0 mg/kg/injection, schedule: Q04DX003 (ip), vehicle: saline

O=C(O)COc1cccc(CN(CCCl)CCCl)c1
T/C (dose: 0.4 mg/kg/injection, schedule: Q04DX003 (ip), vehicle: saline): 130 % of control | T/C (dose: 0.6 mg/kg/injection, schedule: Q04DX003 (ip), vehicle: saline): 170 % of control | T/C (dose: 0.9 mg/kg/injection, schedule: Q04DX003 (ip), vehicle: saline): 180 % of control | T/C (dose: 625.0 micrograms/kg/injection, schedule: Q04DX003 (ip), vehicle: saline with Tween-80): 159 % of control | T/C (dose: 1250.0 micrograms/kg/injection, schedule: Q04DX003 (ip), vehicle: saline with Tween-80): 118 % of control | survivor count (dose: 2500.0 micrograms/kg/injection, schedule: Q04DX003 (ip), vehicle: saline with Tween-80): 5 of 6

O=[N+]([O-])c1cc([N+](=O)[O-])c(NNc2ccccc2)c([N+](=O)[O-])c1
T/C [1]: 109 [survivor count not shown] and 118 % of control [survivor count not shown] | T/C (dose: 12.5 mg/kg/injection, schedule: Q04DX003 (ip), vehicle: saline with Tween-80): 113 % of control [survivor count not shown] | T/C [2]: 118 % of control [survivor count not shown] | T/C (dose: 25.0 mg/kg/injection, schedule: Q04DX003 (ip), vehicle: saline with Tween-80): 121 % of control [survivor count not shown] | T/C [3]: 127 [survivor count not shown] and 131 % of control [survivor count not shown] | T/C (dose: 50.0 mg/kg/injection, schedule: Q04DX003 (ip), vehicle: saline with Tween-80): 130 % of control [survivor count not shown]

O=P(Nc1ncccn1)(N1CC1)N1CC1
T/C (dose: 1.8 mg/kg/injection, schedule: Q04DX003 (ip), vehicle: saline): 113 % of control | T/C (dose: 2.6 mg/kg/injection, schedule: Q04DX003 (ip), vehicle: saline): 109 % of control | T/C (dose: 3.3 mg/kg/injection, schedule: Q01DX009 (ip), vehicle: saline): 153 % of control | T/C (dose: 4.0 mg/kg/injection, schedule: Q04DX003 (ip), vehicle: saline): 104 % of control | T/C (dose: 5.0 mg/kg/injection, schedule: Q01DX009 (ip), vehicle: saline): 150 % of control | T/C (dose: 6.0 mg/kg/injection, schedule: Q04DX003 (ip), vehicle: saline): 131 % of control | T/C (dose: 6.3 mg/kg/injection, schedule: Q04DX003 (ip), vehicle: saline): 159 % of control | T/C (dose: 8.0 mg/kg/injection, schedule: Q01DX009 (ip), vehicle: saline): 171 and 186 % of control | T/C (dose: 9.5 mg/kg/injection, schedule: Q04DX003 (ip), vehicle: saline): 177 % of control | T/C (dose: 12.0 mg/kg/injection, schedule: Q01DX009 (ip), vehicle: saline): 222 % of control | T/C (dose: 12.5 mg/kg/injection, schedule: Q01DX009 (ip), vehicle: saline): 268 % of control | T/C (dose: 14.5 mg/kg/injection, schedule: Q04DX003 (ip), vehicle: saline): 190 % of control | T/C (dose: 18.0 mg/kg/injection, schedule: Q01DX009 (ip), vehicle: saline): 272 % of control | T/C (dose: 22.0 mg/kg/injection, schedule: Q04DX003 (ip), vehicle: saline): 196 and 204 % of control | T/C (dose: 25.0 mg/kg/injection, schedule: Q01DX009 (ip), vehicle: saline): 86 and 110 % of control | T/C (dose: 25.0 mg/kg/injection, schedule: Q04DX003 (ip), vehicle: saline): 166 % of control | T/C (dose: 33.0 mg/kg/injection, schedule: Q04DX003 (ip), vehicle: saline): 230 and 272 % of control | survivor count (dose: 50.0 mg/kg/injection, schedule: Q01DX009 (ip), vehicle: saline): 6 of 6 | T/C (dose: 50.0 mg/kg/injection, schedule: Q04DX003 (ip), vehicle: saline): 118, 230, 238 % of control | T/C [4]: 100 % of control [5 of 6 alive] | survivor count [4]: 6 of 6 | survivor count (dose: 100.0 mg/kg/injection, schedule: Q01DX009 (ip), vehicle: saline): 6 of 6 | T/C (dose: 100.0 mg/kg/injection, schedule: Q04DX003 (ip), vehicle: saline): 88 % of control [4 of 6 alive]

CN(/N=C\c1ccc(N(CCBr)CCBr)cc1)C(=N)N
T/C (dose: 0.2 mg/kg/injection, schedule: Q04DX003 (ip), vehicle: Klucel (hydroxypropylcellulose) (HPC)): 100 % of control | T/C (dose: 0.3 mg/kg/injection, schedule: Q04DX003 (ip), vehicle: Klucel (hydroxypropylcellulose) (HPC)): 100 % of control | T/C (dose: 0.5 mg/kg/injection, schedule: Q04DX003 (ip), vehicle: Klucel (hydroxypropylcellulose) (HPC)): 111 and 145 % of control | T/C (dose: 0.8 mg/kg/injection, schedule: Q04DX003 (ip), vehicle: Klucel (hydroxypropylcellulose) (HPC)): 141 % of control | T/C (dose: 1.3 mg/kg/injection, schedule: Q04DX003 (ip), vehicle: Klucel (hydroxypropylcellulose) (HPC)): 136 and 158 % of control | T/C (dose: 1.5 mg/kg/injection, schedule: Q01DX009 (ip), vehicle: Klucel (hydroxypropylcellulose) (HPC)): 126 % of control | T/C (dose: 2.0 mg/kg/injection, schedule: Q04DX003 (ip), vehicle: Klucel (hydroxypropylcellulose) (HPC)): 136 % of control | T/C (dose: 3.0 mg/kg/injection, schedule: Q01DX009 (ip), vehicle: Klucel (hydroxypropylcellulose) (HPC)): 161 % of control | T/C (dose: 3.0 mg/kg/injection, schedule: Q04DX003 (ip), vehicle: Klucel (hydroxypropylcellulose) (HPC)): 136 % of control | T/C (dose: 4.5 mg/kg/injection, schedule: Q04DX003 (ip), vehicle: Klucel (hydroxypropylcellulose) (HPC)): 153 % of control | T/C (dose: 6.0 mg/kg/injection, schedule: Q01DX009 (ip), vehicle: Klucel (hydroxypropylcellulose) (HPC)): 188 % of control | T/C (dose: 7.0 mg/kg/injection, schedule: Q04DX003 (ip), vehicle: Klucel (hydroxypropylcellulose) (HPC)): 165 % of control | T/C (dose: 11.0 mg/kg/injection, schedule: Q04DX003 (ip), vehicle: Klucel (hydroxypropylcellulose) (HPC)): 188 % of control | T/C [1]: 144 % of control | T/C (dose: 16.5 mg/kg/injection, schedule: Q04DX003 (ip), vehicle: Klucel (hydroxypropylcellulose) (HPC)): 154 and 173 % of control | T/C [2]: 108 and 168 % of control | survivor count (dose: 37.5 mg/kg/injection, schedule: Q04DX003 (ip), vehicle: Klucel (hydroxypropylcellulose) (HPC)): 6 of 6 | T/C [3]: 104 % of control

Nc1ccc(CCCCc2cccc(S(=O)(=O)F)c2)c(Cl)c1.O=[N+]([O-])c1cc([N+](=O)[O-])c(O)c([N+](=O)[O-])c1
T/C [2]: 95 % of control | T/C [3]: 90 % of control | T/C (dose: 56.0 mg/kg/injection, schedule: Q01DX009 (ip), vehicle: saline): 95 % of control | T/C (dose: 100.0 mg/kg/injection, schedule: Q04DX003 (ip), vehicle: Klucel (hydroxypropylcellulose) (HPC)): 95 % of control | T/C (dose: 112.0 mg/kg/injection, schedule: Q01DX009 (ip), vehicle: saline): 115 % of control | T/C (dose: 150.0 mg/kg/injection, schedule: Q01DX009 (ip), vehicle: Klucel (hydroxypropylcellulose) (HPC)): 109 % of control | T/C (dose: 150.0 mg/kg/injection, schedule: Q01DX009 (ip), vehicle: saline): 95 % of control | T/C (dose: 150.0 mg/kg/injection, schedule: Q04DX003 (ip), vehicle: Klucel (hydroxypropylcellulose) (HPC)): 115 % of control | survivor count (dose: 225.0 mg/kg/injection, schedule: Q01DX009 (ip), vehicle: Klucel (hydroxypropylcellulose) (HPC)): 6 of 6 | T/C (dose: 225.0 mg/kg/injection, schedule: Q01DX009 (ip), vehicle: saline): 109 and 130 % of control | T/C (dose: 225.0 mg/kg/injection, schedule: Q04DX003 (ip), vehicle: Klucel (hydroxypropylcellulose) (HPC)): 120 % of control | survivor count (dose: 335.0 mg/kg/injection, schedule: Q01DX009 (ip), vehicle: Klucel (hydroxypropylcellulose) (HPC)): 6 of 6 | survivor count (dose: 335.0 mg/kg/injection, schedule: Q01DX009 (ip), vehicle: saline): 3 of 6 | survivor count (dose: 335.0 mg/kg/injection, schedule: Q04DX003 (ip), vehicle: Klucel (hydroxypropylcellulose) (HPC)): 6 of 6

[N-]=[N+]=Nc1cc2c(cc1[N+](=O)[O-])no[n+]2[O-]
T/C (dose: 15.0 mg/kg/injection, schedule: Q01DX009 (ip), vehicle: saline with Tween-80): 123 % of control [survivor count not shown] | T/C (dose: 30.0 mg/kg/injection, schedule: Q01DX009 (ip), vehicle: saline with Tween-80): 123 % of control [survivor count not shown]
